Data as given in PubChem BioAssay AID1259405 (NCATS, 2018).
The deposit covers about 50,000 reagents; below is an unselected part. About 4,000 of them (8%) were called active. 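Mouse siRNA library applied to hamster cells; one well for each siRNA.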 Unmarked entries are inactive. The numbers tell different reagents against one gene apart.

Aim: 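Mouse-designed siRNAs used to find CHO productivity engineering targets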 (primary screen)
Cell system: Chinese hamster CHO-K1 ovary cells with stable secreted eGFP expression
Knock-down reagent: single siRNA against mouse genes, 0.8 pmol siRNA per well (2 µl of 400 nM stock)
Time to read-out: 3 days
Measured: 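Percent of the per-plate non-targeting control median for intracellular GFP per well by laser scanning cytometry and for cell viability by ATP luminescence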
Reading the numbers: GFP, % of control: higher = more GFP per well, higher productivity; viability (ATP), % of control: higher = more viable cells (more ATP)
Call rule: 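a knock-down is called active if GFP reaches 120% or more of non-targeting control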

Target gene | siRNA no. | GFP, % of control | viability (ATP), % of control
Arhgap44 (Rho GTPase activating protein 44) | 1 | 66.2 | 63.9
Arhgap44 (Rho GTPase activating protein 44) | 2 | 61.7 | 89.7
Arhgap44 (Rho GTPase activating protein 44) | 3 | 59.1 | 73.6
Slc30a8 | 1 | 89.4 | 85.8
Slc30a8 | 2 | 96 | 97.5
Slc30a8 | 3 | 90.3 | 85.1
Btn1a1 (butyrophilin, subfamily 1, member A1) | 1 | 118 | 106
Btn1a1 (butyrophilin, subfamily 1, member A1) | 2 | 72.9 | 61.9
Mcm6 (minichromosome maintenance complex component 6) | 1 | 123 (active) | 116
Mcm6 (minichromosome maintenance complex component 6) | 2 | 98.2 | 79.6
Mcm6 (minichromosome maintenance complex component 6) | 3 | 66.4 | 83.4
Krtap19-9b (keratin associated protein 19-9B) | 1 | 88.2 | 88.4
Krtap19-9b (keratin associated protein 19-9B) | 2 | 61.4 | 70.1
Krtap19-9b (keratin associated protein 19-9B) | 3 | 90.7 | 82.1
Il25 (interleukin 25) | 1 | 95.7 | 70.9
Il25 (interleukin 25) | 2 | 39.1 | 54.5
Il25 (interleukin 25) | 3 | 144 (active) | 57.6
Tbx18 (T-box18) | 1 | 86.3 | 111
Tbx18 (T-box18) | 2 | 98.6 | 85.2
Tbx18 (T-box18) | 3 | 72.7 | 79.5
Irf2bpl (interferon regulatory factor 2 binding protein-like) | 1 | 124 (active) | 94.9
Irf2bpl (interferon regulatory factor 2 binding protein-like) | 2 | 78.6 | 84.3
Irf2bpl (interferon regulatory factor 2 binding protein-like) | 3 | 65.7 | 86.5
Etv1 (ets variant 1) | 1 | 91.1 | 83.8
Etv1 (ets variant 1) | 2 | 60.9 | 57.6
Etv1 (ets variant 1) | 3 | 105 | 111
Sh3bp4 (SH3-domain binding protein 4) | 1 | 48 | 61.8
Sh3bp4 (SH3-domain binding protein 4) | 2 | 87 | 94.5
Sh3bp4 (SH3-domain binding protein 4) | 3 | 50.4 | 72.3
Sult1c2 (sulfotransferase family, cytosolic, 1C, member 2) | 1 | 139 (active) | 151
Sult1c2 (sulfotransferase family, cytosolic, 1C, member 2) | 2 | 87.6 | 77.3
Sult1c2 (sulfotransferase family, cytosolic, 1C, member 2) | 3 | 92.3 | 45.5
Arhgap39 (Rho GTPase activating protein 39) | 1 | 51.9 | 49.2
Arhgap39 (Rho GTPase activating protein 39) | 2 | 88.1 | 93.3
Arhgap39 (Rho GTPase activating protein 39) | 3 | 65 | 82

Single entries from the list.
Entry of Sh3bp4 (SH3-domain binding protein 4) #1 under “viability (ATP), % of control”: 61.8
For “GFP, % of control”, Sult1c2 (sulfotransferase family, cytosolic, 1C, member 2) #2 has 87.6
Mcm6 (minichromosome maintenance complex component 6) #2, viability (ATP), % of control: 79.6
